From PubChem BioAssay AID651768 (National Center for Advancing Translational Sciences (NCATS), 2012)
Out of some 360,000 compounds screened, about 1,700 (0.47%) were called active. Inconclusive means that the source gave no clear call. Such entries were picked first, then a sample of the others. Calls come from the whole dose curve; as a rule, active = well fitted inhibition curve with a large enough effect; inconclusive = small, poorly fitted or top-dose-only effect; inactive = no such curve, though single readings can be large or run the other way. Where the call is inconclusive, the potency comes from a doubtful curve fit.

The chains behind the UniProt entries cited, without tags or fusion partners.
UniProt Q14191, whole entry, looked up: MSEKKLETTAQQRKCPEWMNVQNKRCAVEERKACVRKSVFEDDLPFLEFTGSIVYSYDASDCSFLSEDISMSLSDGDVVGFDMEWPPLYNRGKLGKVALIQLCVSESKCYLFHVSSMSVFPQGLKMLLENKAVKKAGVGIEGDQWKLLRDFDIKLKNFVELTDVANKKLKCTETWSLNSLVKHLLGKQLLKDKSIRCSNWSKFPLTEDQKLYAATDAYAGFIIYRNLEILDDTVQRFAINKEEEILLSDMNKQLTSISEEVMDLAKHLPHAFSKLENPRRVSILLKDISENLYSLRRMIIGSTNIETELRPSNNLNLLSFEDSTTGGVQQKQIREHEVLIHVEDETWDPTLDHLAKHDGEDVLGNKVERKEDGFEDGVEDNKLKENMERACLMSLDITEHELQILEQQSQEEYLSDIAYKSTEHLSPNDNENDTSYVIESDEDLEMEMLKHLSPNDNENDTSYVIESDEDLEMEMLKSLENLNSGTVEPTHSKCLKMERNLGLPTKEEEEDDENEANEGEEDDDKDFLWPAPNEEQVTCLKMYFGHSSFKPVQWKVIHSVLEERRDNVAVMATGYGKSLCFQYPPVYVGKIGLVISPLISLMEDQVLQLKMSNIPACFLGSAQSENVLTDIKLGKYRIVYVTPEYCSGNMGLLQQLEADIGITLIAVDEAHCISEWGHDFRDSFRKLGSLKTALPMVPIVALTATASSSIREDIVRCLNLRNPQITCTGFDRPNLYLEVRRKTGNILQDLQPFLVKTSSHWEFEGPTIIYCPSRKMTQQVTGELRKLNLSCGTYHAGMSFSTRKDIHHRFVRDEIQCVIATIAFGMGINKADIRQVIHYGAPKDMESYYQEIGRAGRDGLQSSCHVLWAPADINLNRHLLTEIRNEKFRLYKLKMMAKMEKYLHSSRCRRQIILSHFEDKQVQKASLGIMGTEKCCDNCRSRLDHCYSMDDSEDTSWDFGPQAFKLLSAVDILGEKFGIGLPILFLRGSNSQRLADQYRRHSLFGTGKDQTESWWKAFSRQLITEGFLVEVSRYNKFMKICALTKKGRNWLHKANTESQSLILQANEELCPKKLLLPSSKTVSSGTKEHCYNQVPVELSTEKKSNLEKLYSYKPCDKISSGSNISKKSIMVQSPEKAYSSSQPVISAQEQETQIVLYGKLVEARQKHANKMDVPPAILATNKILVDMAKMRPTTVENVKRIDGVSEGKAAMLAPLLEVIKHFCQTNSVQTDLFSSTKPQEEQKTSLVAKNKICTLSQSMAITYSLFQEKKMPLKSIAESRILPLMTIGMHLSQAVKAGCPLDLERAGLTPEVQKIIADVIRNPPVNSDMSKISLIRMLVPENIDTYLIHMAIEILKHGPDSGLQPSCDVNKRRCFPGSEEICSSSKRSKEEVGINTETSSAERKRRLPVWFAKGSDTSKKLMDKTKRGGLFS

Target: Bifunctional 3'-5' exonuclease/ATP-dependent helicase WRN (Homo sapiens) (UniProt Q14191)
Experiment: qHTS for Inhibitors of WRN Helicase; note: nearly all actives have a fitted effect of over 55% in size
Conditions: WRN helicase unwinding, fluorescent forked duplex, kinetic; activity change, negative = inhibition: at 114 µM (top of the series) unless noted
In short: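 Fluorescence dequenching readout, ex 525 nm/em 598 nm, kinetic mode: forked duplex DNA (100 nM final) with adjacent fluorophore and quencher unwound by WRN (20 nM final) with 2 mM ATP. Compound preincubation 15 min, room temperature.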
% is set by controls: 0 for no effect and ±100 for the full control effect; potency is the fitted concentration of half-maximal effect.

| Structure (SMILES) | activity change, negative = inhibition | Potency |
| --- | --- | --- |
| COC(=O)Cn1c(=NC(=O)c2ccc(OC)cc2)sc2cc(OC)ccc21 | inactive: -15.2% | – |
| O=C(O)/C=C/C(=O)N1Cc2cc3ccccc3nc2C1 | – | inconclusive: 56.2 µM [inhibitor, partial curve] |
| CCOC(=O)c1sc(=S)n(-c2ccc(F)c(F)c2)c1N | inactive: 2.98% | – |
| COCCCn1c(=O)/c(=C\c2ccccc2OC(C)C)s/c1=C(/C#N)C(=O)Nc1ccc(C(=O)O)cc1 | – | inconclusive: 89.1 µM [inhibitor, single point] |
| C=CCOc1ccc(CN(C)CC(=O)Nc2ccc3c(c2)CCC3)cc1 | – | inconclusive: 50.1 µM [inhibitor, partial curve] |
| Cc1cc(C)n2nc(SCc3ncc(-c4ccccc4)o3)nc2n1 | – | inconclusive: 17.8 µM [inhibitor, full curve] |
| CCCCOC(=O)c1ccc(NC(=O)C(=O)NCc2ccccn2)cc1 | – | inconclusive: 10 µM [inhibitor, full curve, poor fit] |
| Cc1c(C2=CCN(S(=O)(=O)c3ccc(Cl)cc3)CC2)c2ccccc2n1C | – | inconclusive: 50.1 µM [inhibitor, partial curve] |
| Cc1cccc(-n2ncc(C#N)c2N)c1 | – | inconclusive: 89.1 µM [inhibitor, single point] |
| CN(C(=O)CSc1nc2cc([N+](=O)[O-])ccc2n1-c1ccc(F)cc1)C1CCS(=O)(=O)C1 (stereo unspecified) | – | inconclusive: 28.2 µM [inhibitor, partial curve] |
| Cc1ccc(C)n1Cc1ccc(C(=O)O)cc1 | – | active: 2.82 µM |
| CCN(CC)c1ccc(/C=N/NC(=S)NCc2ccccc2)cc1 | inactive: 3.11% | – |
| COc1ccc(OC)c(N(C)S(=O)(=O)c2cc3c(cc2C)NC(=O)CO3)c1 | inactive: -7.03% | – |
| Cc1ccc(OCC(=O)N/N=C/C=C/c2ccco2)c(Br)c1 | inactive: -13.8% | – |
| Cc1oc2c(cc(NS(=O)(=O)c3ccc(Cl)cc3)c3ccccc32)c1C(=O)O | inactive: -20.5% | – |
| CCOc1ccc(Cl)cc1C1=CC(=O)C[C@H](c2ccc(OC)cc2)C1 | inactive: -4.6% | – |
| O=C(Nc1ccccc1C(=O)O)c1cccc(NC(=O)c2ccc(Br)o2)c1 | – | inconclusive: 31.6 µM [inhibitor, full curve] |
| O=[N+]([O-])c1cc(CN2CCCC2)c2cccnc2c1O | – | inconclusive: 100 µM [inhibitor, partial curve, poor fit] |
| Cc1ccc(S(=O)(=O)N2CCN(C(=O)COC(=O)CSc3cc(C)ccc3C)CC2)c(C)c1 | – | inconclusive: 15.8 µM [inhibitor, single point] |
| C#CC1(O)CCC2C3CCc4cc(O)cc(C)c4C3CCC21C (stereo unspecified) | inactive: -24% | – |
| NC(=O)c1ccc(N2CCN(c3ccc(O)cc3)CC2)c([N+](=O)[O-])c1 | inactive: -8.75% [at 57.1 µM] | – |
| O=C(O)CCSc1ccc([N+](=O)[O-])cc1[N+](=O)[O-] | inactive: -18.1% | – |
| COc1ccc(C(=O)N/N=C/c2sc3ccccc3c2O)cc1 | – | inconclusive: 50.1 µM [inhibitor, partial curve] |
| COc1ccc(NS(=O)(=O)c2ccc(OC)c(N(C)S(=O)(=O)c3ccc(Cl)cc3)c2)cc1 | inactive: -17.2% | – |

| Structure (SMILES) | activity change, negative = inhibition | Potency |
| --- | --- | --- |
| O=C(c1ccccc1)N1N=C(c2ccco2)CC1c1cccs1 (stereo unspecified) | – | inconclusive: 28.2 µM [inhibitor, single point] |
| COCCCNC(=O)C[C@H]1C[C@H](C(=O)N2CCOCC2)[C@@]2(C)c3[nH]c4cc(CCC(=O)N(C)C)ccc4c3CCN2C1=O | inactive: -2.5% | – |
| CSCCNC(=O)C1(C)CCN1C(=O)c1sccc1C (stereo unspecified) | inactive: -0.973% [at 57.1 µM] | – |
| O=C(NCc1ccccc1)c1sc(=S)n2c1[nH]c(=O)c1ccccc12 | – | inconclusive: 44.7 µM [inhibitor, partial curve] |
| COc1ccc2[nH]c3c(C)c4cc[n+](C)cc4c(C)c3c2c1 | – | active: 22.4 µM |
| CSc1ccc(CN2CCC(N3CC(C)OC(C)C3)CC2)cc1 (stereo unspecified) | – | inconclusive: 56.2 µM [inhibitor, partial curve] |
| Cc1ccc(-c2nc3ccccc3o2)cc1NC(=S)NC(=O)/C=C/c1ccco1 | – | inconclusive: 100 µM [inhibitor, partial curve, poor fit] |
| Cn1c(=O)c(C(=O)Nc2ncccc2O)c(O)c2ccccc21 | inactive: -6.59% [at 57.1 µM] | – |
| N#C/C(=C\c1coc2ccc(O)cc2c1=O)C(=O)Nc1nc2ccccc2s1 | – | active: 56.2 µM |
| C/C(N)=C(/C#N)C(=O)CSc1nc2ccccc2[nH]1 | – | inconclusive: 44.7 µM [inhibitor, partial curve] |
| CCN(CC)S(=O)(=O)c1ccc(/C=C/C(=O)OCC(=O)NCc2ccco2)cc1 | – | inconclusive: 15.8 µM [inhibitor, full curve] |
| CCCCCc1c2c(cc(O)c1C(=O)O)OC(=O)c1c(cc(OC)cc1C(=O)CCCC)O2 | – | inconclusive: 50.1 µM [inhibitor, partial curve] |
| O=C1C2C(C(=O)N1/N=C/c1cc([N+](=O)[O-])c(O)cc1O)C1C=CC2C12CC2 (stereo unspecified) | – | inconclusive: 25.1 µM [inhibitor, single point] |
| O=c1[nH]c2cc3c(cc2cc1CN(Cc1cccs1)Cc1nnnn1Cc1ccco1)OCCO3 | – | inconclusive: 56.2 µM [inhibitor, partial curve] |
| COC(=O)c1cc(CNC(=O)C2CC(=O)N(c3ccc4c(c3)OCCO4)C2)ccc1OC (stereo unspecified) | inactive: -1.44% | – |
| CCCC(NC(=O)Cc1c(C)c2cc3c(C)c(C)oc3c(C)c2oc1=O)C(=O)N[C@@H](Cc1ccccc1)C(=O)O (stereo partly specified) | inactive: -15.7% | – |
| CC(=O)c1ccc2noc(-c3ccccc3)c2c1 | inactive: 1.75% | – |
| CCOc1ccc(-n2c(O)c(/C=N/Nc3nnc(C)c(=O)[nH]3)c3ccccc3c2=O)cc1 | – | inconclusive: 50.1 µM [inhibitor, partial curve] |
| Cc1[nH][nH]c(=O)c1C(c1ccc(-c2cccc(C(=O)O)c2)o1)c1c(C)[nH][nH]c1=O | – | inconclusive: 21.2 µM [inhibitor, partial curve] |
| CCOC(=O)Cc1csc(NC(=O)CSc2nc(-c3ccccc3)c(C#N)c(=O)[nH]2)n1 | inactive: -4.31% | – |
| CCCN1CCN(C(=O)Cn2cnc3ccc(S(=O)(=O)N4CCC(C)CC4)cc3c2=O)CC1 | – | inconclusive: 39.8 µM [inhibitor, single point] |
| CCCCc1cc(=O)oc2cc(C)c(CN3CCCC3)c(O)c12 | – | active: 50.1 µM |
| CC(=O)c1ccc(OCC(=O)c2ccc(-c3ccccc3)cc2)cc1 | – | inconclusive: 28.2 µM [inhibitor, single point] |
| Cc1ccc(SCC(=O)Nc2cccnc2)cc1 | inactive: 3.95% | – |

| Structure (SMILES) | activity change, negative = inhibition | Potency |
| --- | --- | --- |
| CCN(CC)c1ccc(N=Cc2ccc([N+](=O)[O-])o2)cc1 | – | inconclusive: 56.2 µM [inhibitor, partial curve] |
| Cc1n[nH]c(C)c1Sc1ccccc1N | – | inconclusive: 89.1 µM [inhibitor, single point] |
| Cc1cc(C(=O)CSc2nnnn2-c2ccc(O)cc2)c(C)n1C | – | inconclusive: 25.1 µM [inhibitor, single point] |
| O=C(O)c1ccc2c(c1)[C@@H]1C=CC[C@@H]1[C@H](c1ccccn1)N2 | – | active: 35.5 µM |
| O=C1c2ccccc2C(=O)c2c1cccc2N1CCCC1 | – | inconclusive: 44.7 µM [inhibitor, partial curve] |
| Oc1ccc(N=Cc2ccc(O)c(O)c2)cc1 | – | active: 31.6 µM |
| O=C(N/N=C/c1c[nH]c2ccccc12)c1ccc(O)c(O)c1 | – | inconclusive: 31.6 µM [inhibitor, full curve] |
| CC(=O)c1ccc(NC(=S)Nc2ccn(Cc3ccc(Br)cc3)n2)cc1 | inactive: -5.42% | – |
| CC(C)(C)c1ccc(C(=O)Nn2c(CCC(=O)O)ccc2-c2cccs2)cc1 | – | inconclusive: 50.1 µM [inhibitor, partial curve] |
| CCOc1cccc(CNc2ccc(O)cc2)c1OCc1ccc(Cl)cc1Cl | – | inconclusive: 79.4 µM [inhibitor, partial curve] |
| CN(C)c1ccc(/C=C2\SC(=O)N(CC(O)Cn3c4ccccc4c4ccccc43)C2=O)cc1 (stereo unspecified) | – | inconclusive: 100 µM [inhibitor, single point] |
| Cc1nn(-c2ccccn2)c2c1C(=O)C(Br)CC2 (stereo unspecified) | – | active: 56.2 µM |
| Cc1cc(C)cc(N(CC(=O)N/N=C/c2ccncc2)S(=O)(=O)c2ccccc2)c1 | – | inconclusive: 28.2 µM [inhibitor, single point] |
| COC(=O)CS(=O)(=O)c1nnc([C@H](Cc2ccccc2)NC(=O)OC(C)(C)C)o1 | – | inconclusive: 50.1 µM [inhibitor, partial curve] |
| CCOC(=O)c1c(C)[nH]c(N=Nc2cc(C(=O)O)cc(C(=O)O)c2)c1C | – | inconclusive: 89.1 µM [inhibitor, single point] |
| CCOC(=O)C1=C(O)c2ccccc2C(=O)/C1=C\c1ccc(CC)cc1 | – | active: 56.2 µM |
| Cc1ccc2nc(NC(=O)CSc3nnc(C)c(=O)n3N)sc2c1 | – | inconclusive: 12.6 µM [inhibitor, partial curve] |
| COc1ccc(/C=C2/SC(=O)N(CCC(=O)Nc3ccccc3C(=O)O)C2=S)cc1 | – | inconclusive: 79.4 µM [inhibitor, single point] |
| CCCCN=C1NN=C(c2ccc(C)c(C)c2)CS1 | inactive: -1.57% [at 57.1 µM] | – |
| CCN(CC)c1ccc(/C=c2\sc3nnc(-c4ccccc4Cl)n3c2=O)cc1 | – | inconclusive: 63.1 µM [inhibitor, partial curve, poor fit] |
| COC(=O)c1cc(C(=O)c2cc(Cl)ccc2O)coc1=N | – | inconclusive: 22.4 µM [inhibitor, single point] |
| COc1ccc(CCNC(=O)c2ccn[nH]2)cc1OC | inactive: -31.7% | – |
| O=C(COC(=O)/C=C/c1ccc(Cl)cc1)NC(=O)NCc1ccccc1 | – | inconclusive: 31.6 µM [inhibitor, full curve, poor fit] |

Laid out differently: results already given
Structure (SMILES),"activity change, negative = inhibition",Potency
CC(C)(C)c1ccc(C(=O)Nn2c(CCC(=O)O)ccc2-c2cccs2)cc1,–,"inconclusive: 50.1 µM [inhibitor, partial curve]"
CCOc1cccc(CNc2ccc(O)cc2)c1OCc1ccc(Cl)cc1Cl,–,"inconclusive: 79.4 µM [inhibitor, partial curve]"
CN(C)c1ccc(/C=C2\SC(=O)N(CC(O)Cn3c4ccccc4c4ccccc43)C2=O)cc1 (stereo unspecified),–,"inconclusive: 100 µM [inhibitor, single point]"
Cc1nn(-c2ccccn2)c2c1C(=O)C(Br)CC2 (stereo unspecified),–,active: 56.2 µM
Cc1cc(C)cc(N(CC(=O)N/N=C/c2ccncc2)S(=O)(=O)c2ccccc2)c1,–,"inconclusive: 28.2 µM [inhibitor, single point]"
COC(=O)CS(=O)(=O)c1nnc([C@H](Cc2ccccc2)NC(=O)OC(C)(C)C)o1,–,"inconclusive: 50.1 µM [inhibitor, partial curve]"
